Structures can show the parent of a compound that is named as a salt. Some entries share one result that the patent states for a list of compounds.
Biological target: T1, neuronal constitutive NO synthase (Rattus norvegicus, UniProt P29476)
T1 construct: The reaction is initiated by adding 50 μl of homogenate; from tissue; host or cells: cerebellum of Sprague-Dawley rats (Charles River), homogenate centrifuged at 21000 g
Test: Effects on neuronal constitutive NO synthase of a rat's cerebellum ([3H]L-arginine to [3H]L-citrulline conversion)
Assay type: biochemical
Settings: rat cerebellum homogenate; conversion of [3H]L-arginine into [3H]L-citrulline; 15 min

IC50, < 4.5 µM:
N=C(Nc1ccc(CCNC(=O)CCCCC2CCSS2)cc1)c1cccs1 (centres unmarked) [Example 2, N-{2-{4[[(2-Thienyl)(imino)methyl]amino]phenyl}ethyl}-1,2-dithiolane-3-pentanamide]
N=C(Nc1ccc(NC(=O)CCCCC2CCSS2)cc1)c1cccs1 (centres unmarked) [Example 1, N-{4-[[(2-Thienyl)(imino)methyl]amino]phenyl}-1,2-dithiolane-3-pentanamide Hydrochloride]
Cc1cc(N)nc(CCCCNC(=O)CCCCC2CCSS2)c1 (centres unmarked) [Example 4, N-[4-(6-Amino-4-methyl-2-pyridinyl)butyl]-1,2-dithiolane-3-pentanamide]
Cc1cc(N)nc(CCCCNC(=O)CC2CCSS2)c1 (centres unmarked) [Example 5, N-[4-(6-Amino-4-methyl-2-pyridinyl)butyl]-1,2-dithiolane-3-acetamide Fumarate]
N=C(Nc1ccc(CCNC(=O)CC2CCSS2)cc1)c1cccs1 (centres unmarked) [Example 3, N-{2-{4[[(2-Thienyl)(imino)methyl]amino]phenyl}ethyl}-1,2-dithiolane-3-acetamide Hydrochloride]
